Screening data

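293T-iDUX4 cells carrying a ZSCAN4-driven Gaussia luciferase and a tet-on Italica luciferase control; the gap between the two luminescence signals is read after 24 h.
The test concentration is not given here.
Percent difference between the Gaussia and Italica channels; more negative values mean more selective suppression of the DUX4 reporter, and higher values mean less activity.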

Values are in %.
How 0% and 100% were set is not given here.
Common to all entries: measured here: selective DUX4 reporter inhibition.
This is a side read-out of the assay, for part of the compounds, not drawn at random.

{"smiles": "COc1cccc(CN2C[C@@H]3N[C@H](C2)C3c2ccc(-c3cccc(C#N)c3)cc2)c1", "stereo": "stereo partly specified", "Gaussia minus Italica difference (%)": "-6.966"}
{"smiles": "O=C(C[C@H]1CC[C@H]2[C@@H](COC[C@H](O)CN2Cc2ccccc2F)O1)N1CCc2ccccc2C1", "Gaussia minus Italica difference (%)": "-1.561"}
{"smiles": "C[C@@H]1CN([C@@H](C)CO)C(=O)CCCn2nncc2CO[C@@H]1CN(C)S(=O)(=O)c1ccc(-c2ccccc2)cc1", "Gaussia minus Italica difference (%)": "-9.074"}
{"smiles": "COc1ccccc1C#Cc1ccc([C@@H]2[C@H](CO)N3CCCCN(S(C)(=O)=O)C[C@@H]23)cc1", "Gaussia minus Italica difference (%)": "-16.48"}
{"smiles": "O=C(C[C@H]1CC[C@H]2[C@@H](COC[C@@H](O)CN2Cc2ccc(Oc3ccccc3)cc2)O1)N1CCN(c2ccccc2)CC1", "Gaussia minus Italica difference (%)": "1.263"}
{"smiles": "COc1ccc2c3c([nH]c2c1)[C@H](CO)N(C(=O)c1ccccc1)CC31CCN(C(=O)Nc2cccc(F)c2)CC1", "Gaussia minus Italica difference (%)": "-10.44"}
{"smiles": "COc1cccc(S(=O)(=O)Nc2ccc3c(c2)[C@H]2C[C@@H](CC(=O)NCCc4ccccc4)O[C@H](CO)[C@H]2O3)c1", "Gaussia minus Italica difference (%)": "-19.47"}
{"smiles": "CN(C)C(=O)c1ccc(-c2ccc(C3[C@@H]4CN(C(=O)C5CC5)C[C@H]3N4)cc2)cc1", "stereo": "stereo partly specified", "Gaussia minus Italica difference (%)": "-15.76"}
{"smiles": "C[C@@H]1CN([C@H](C)CO)C(=O)c2ccccc2-c2ccccc2CO[C@@H]1CN(C)Cc1ccc(F)cc1", "Gaussia minus Italica difference (%)": "-24.11"}
{"smiles": "O=C(CC1CC1)N1CC2(C1)[C@H](c1ccccc1)[C@@H](CO)N2Cc1cccc(F)c1", "Gaussia minus Italica difference (%)": "-14.12"}
{"smiles": "CC(C)NC(=O)N1[C@@H](C#N)[C@H](c2ccc(C#CC3CC3)cc2)[C@@H]1CO", "Gaussia minus Italica difference (%)": "6.344"}
{"smiles": "C/C=C/c1ccc([C@@H]2[C@H]3CN(C(=O)Nc4ccc(OC)cc4)CCCCN3[C@H]2CO)cc1", "Gaussia minus Italica difference (%)": "-16.97"}
{"smiles": "O=C(C[C@@H]1CC[C@@H]2[C@H](COC[C@@H](O)CN2Cc2cc(F)ccc2F)O1)NCc1ccc(Oc2ccccc2)cc1", "Gaussia minus Italica difference (%)": "-16.7"}
{"smiles": "COc1ccccc1NC(=O)N1CCCCN2[C@H](CO)[C@H](c3ccc(-c4cccc(F)c4)cc3)[C@H]2C1", "Gaussia minus Italica difference (%)": "-7.183"}
{"smiles": "C[C@H](NC(=O)C[C@H]1CC[C@@H](NC(=O)Cc2ccccn2)[C@@H](CO)O1)c1ccccc1", "Gaussia minus Italica difference (%)": "-7.513"}
{"smiles": "O=C1CNC[C@@H]2[C@H](c3ccc(C#Cc4cccnc4)cc3)[C@H](CO)N12", "Gaussia minus Italica difference (%)": "-21.65"}
{"smiles": "O=C(C1CCCC1)N1CC2(C1)[C@@H](c1ccccc1)[C@@H](CO)N2CC1CCCC1", "Gaussia minus Italica difference (%)": "-18.29"}
{"smiles": "COc1cccc(NC(=O)Nc2ccc3c(c2)C(=O)N(C)C[C@@H](OC)[C@H](C)CN(CC2CC2)[C@H](C)CO3)c1", "Gaussia minus Italica difference (%)": "-23.02"}
{"smiles": "O=C([C@H]1[C@H](CO)[C@H]2Cn3c(cccc3=O)[C@H]2N1Cc1ccccc1)N1CCCCC1", "Gaussia minus Italica difference (%)": "-12.07"}
{"smiles": "CCCNC(=O)C[C@@H]1CC[C@@H]2[C@H](COC[C@@H](O)CN2Cc2ccc(Cl)c(Cl)c2)O1", "Gaussia minus Italica difference (%)": "1.294"}
{"smiles": "CCCC(=O)N1CCC2(CC1)CN(C(=O)Nc1ccc(F)cc1)[C@@H](CO)c1c2c2ccc(OC)cc2n1C", "Gaussia minus Italica difference (%)": "-16.03"}
{"smiles": "C[C@H]1CN([C@@H](C)CO)C(=O)c2c(c3ccccc3n2C)-c2ccccc2CO[C@@H]1CN(C)C(=O)Nc1cccc(C(F)(F)F)c1", "Gaussia minus Italica difference (%)": "-5.486"}
{"smiles": "COc1ccc2c3c([nH]c2c1)[C@@H](CO)N(Cc1nccs1)CC31CCN(C(=O)C2CCCCC2)CC1", "Gaussia minus Italica difference (%)": "0.991"}
{"smiles": "O=C(c1ccccn1)N1C[C@@H]2N[C@H](C1)C2c1ccc(-c2ccccc2F)cc1", "stereo": "stereo partly specified", "Gaussia minus Italica difference (%)": "-8.532"}
{"smiles": "COc1ccccc1CN1CC[C@@H]2[C@H]1c1cc(-c3cccc(F)c3)ccc1N[C@@H]2CO", "Gaussia minus Italica difference (%)": "-24.47"}

2 of the entries, repeated:

| SMILES | Gaussia minus Italica difference (%) |
|---|---|
| `O=C(CC1CC1)N1CC2(C1)[C@H](c1ccccc1)[C@@H](CO)N2Cc1cccc(F)c1` | -14.12 |
| `COc1ccc2c3c([nH]c2c1)[C@H](CO)N(C(=O)c1ccccc1)CC31CCN(C(=O)Nc2cccc(F)c2)CC1` | -10.44 |

From PubChem BioAssay record AID1224904 (Broad Institute, 2016).